# Paper PMC11377309
# Results are given in words; binding and its absence hold for the method and conditions named. Binding can be weak; no strength is given.
# Target: T1, Slc19A1 (mouse) (UniProt P41438)
# T1 sequence: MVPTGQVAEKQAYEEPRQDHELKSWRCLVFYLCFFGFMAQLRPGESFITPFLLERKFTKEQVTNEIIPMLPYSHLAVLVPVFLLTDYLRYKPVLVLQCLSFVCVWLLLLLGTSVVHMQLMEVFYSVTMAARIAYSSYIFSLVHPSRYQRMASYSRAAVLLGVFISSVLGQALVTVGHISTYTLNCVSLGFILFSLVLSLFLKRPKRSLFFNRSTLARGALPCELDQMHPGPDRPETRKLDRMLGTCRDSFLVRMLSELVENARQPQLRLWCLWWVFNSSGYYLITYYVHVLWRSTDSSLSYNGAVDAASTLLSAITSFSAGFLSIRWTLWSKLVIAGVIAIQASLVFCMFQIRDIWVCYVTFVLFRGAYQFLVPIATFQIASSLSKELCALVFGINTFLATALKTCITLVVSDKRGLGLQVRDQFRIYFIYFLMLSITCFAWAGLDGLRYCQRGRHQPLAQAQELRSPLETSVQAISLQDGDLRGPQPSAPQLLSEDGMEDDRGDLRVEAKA
# Test: Cell-Int (cell-cell conjugates counted by flow cytometry)
substance,measurement,value
GLN Env,binding,binds
